Earlier results, collected in patent publication US20210244057A1, “SWEETENER POWDER COMPOSITION AND PREPARATION METHOD THEREFOR” (SAMYANG CORPORATION, priority 2018, published 2021).
For at least one compound, name, drawing or mass did not settle the structure.

Conditions: cited from earlier work

**Q.** With `O=C(CO)C(O)C(O)C(O)CO` (stereo not shown) [Crystalline allulose, allulose] as the compound, how does the “sweetness relative to sugar” value read?
**A.** 70%
